PubChem BioAssay AID2685 (National Center for Advancing Translational Sciences (NCATS), 2010)
The list shows a part of the results. Shown are side measurements of this screen, not its main read-out; they come without a call. Most of these compounds were active or inconclusive in the main read-out, so they are no random draw. Potencies come from curve fits of mixed quality, noted in brackets.

Assay: qHTS Assay for Lipid Storage Modulators in Drosophila S3 Cells;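 for cell number change: cells counted by Cell Tracker Red CMTPX staining in the red channel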
Conditions: BODIPY lipid droplet fluorescence, 18-24 h; for cell number change: measured here: cell count max response, cells fed with added oleic acid
In short: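 Drosophila S3 cells loaded with oleic acid (400 uM, as added) and compounds at several concentrations; lipid droplets imaged by 488-nm laser-scanning cytometry, 500–530 nm intensity and object ratio to cell channel. Percent activity normalized to 20 uM Triacsin C.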

[1] = measured here: cell number channel AC50, cells fed with added oleic acid
[2] = measured here: lipid fluorescence (Fed channel) AC50, cells fed with added oleic acid

Row | Structure (SMILES) | cell number change [%] | AC50 [1] | AC50 [2]
1 | O=C(NCc1ccc2c(c1)OCO2)c1ccc(COc2cc(Cl)ccc2Cl)o1 | 72.8 | 2.31 µM [rising, partial curve] | 2.06 µM [rising, partial curve]
2 | CS(=O)(=O)Nc1cccc(C2=NN(C(=O)c3cccc(F)c3)C(c3cccs3)C2)c1 (configuration not stated) | -9.72 | – | –
3 | Cc1ccsc1/C=c1\sc2ncnn2c1=O | -2.95 | 6.51 µM [rising, single point] | 29.1 µM [rising, single point]
4 | COC(=O)COC(=O)c1ccc(Oc2nc(OC)nc(N(C)C)n2)cc1 | 36.5 | 1.3 µM [rising, full curve, poor fit] | –
5 | CCC(C)c1ccc(NC(=O)COC(=O)C2=COCCO2)cc1 (configuration not stated) | 1.27 | – | 0.0058 µM [rising, full curve, poor fit]
6 | Cc1cc(C)nc(SCc2ccc(C(=O)O)o2)n1 | 13.2 | – | 10.3 µM [falling, partial curve]
7 | O=C(Nc1ccc2c(c1)OCO2)c1cc(-c2ccc(O)cc2)on1 | 16.7 | – | 18.4 µM [rising, single point]
8 | C=CCNS(=O)(=O)c1cccc(C(C)=O)c1 | 2.07 | – | –
9 | CC(C)c1onc(C(=O)NCc2ccccn2)c1[N+](=O)[O-] | -14.2 | 6.51 µM [falling, partial curve] | –
10 | Cc1cc(Nc2ccc(F)cc2Cl)n2nc(C)nc2n1 | 12.9 | – | 29.1 µM [rising, single point]
11 | COc1cc(C(c2c(C)[nH][nH]c2=O)c2c(C)[nH][nH]c2=O)cc(Br)c1OC | 10.1 | – | 2.91 µM [rising, partial curve, poor fit]
12 | CC(NC(=O)C(=O)N1CCCCC1)C(c1cccs1)N1CCN(Cc2ccccc2)CC1 (configuration not stated) | 8.96 | – | 29.1 µM [rising, single point]
13 | CN(C)S(=O)(=O)c1ccc(C(=O)Nc2nnc(-c3cccs3)o2)cc1 | -10.1 | – | 0.326 µM [falling, full curve, poor fit]
14 | CC(C)(CNC(=O)c1cccs1)N1CCOCC1 | -5.07 | 4.11 µM [falling, single point] | 6.51 µM [falling, single point]
15 | Cc1cccc(C(=O)NNC(=O)c2c(O)c3ccccc3n(C)c2=O)c1 | 72.9 | 14.6 µM [rising, partial curve] | –
16 | CC(C)N(C(C)C)S(=O)(=O)c1ccc(NN)nc1 | 14.8 | – | 5.8 µM [rising, full curve, poor fit]
17 | Cc1nn(-c2ccccc2)c(C)c1/C=C/C(=O)OC(C)C(=O)Nc1ncc(Cl)cc1Cl (configuration not stated) | 5.48 | – | 2.59 µM [rising, partial curve]
18 | CCOC(=O)c1c(C)n(-c2ccccc2)c2ccc(O)c(CN(C)C)c12 | 2.31 | 0.651 µM [falling, single point] | –
19 | CC(C)Oc1ccc(C(=O)NCc2ccco2)cc1 | 4.17 | – | 29.1 µM [rising, single point]
20 | O=C(COC(=O)COc1ccccc1[N+](=O)[O-])Nc1ccc(S(=O)(=O)N2CCCCC2)cc1 | -1.08 | – | 0.164 µM [rising, full curve, poor fit]

2 of the compounds above, with tabs.
Row	Structure (SMILES)	cell number change [%]	AC50 [1]	AC50 [2]
17	Cc1nn(-c2ccccc2)c(C)c1/C=C/C(=O)OC(C)C(=O)Nc1ncc(Cl)cc1Cl (configuration not stated)	5.48	–	2.59 µM [rising, partial curve]
20	O=C(COC(=O)COc1ccccc1[N+](=O)[O-])Nc1ccc(S(=O)(=O)N2CCCCC2)cc1	-1.08	–	0.164 µM [rising, full curve, poor fit]

(continued)

Row | Structure (SMILES) | cell number change [%] | AC50 [1] | AC50 [2]
21 | Cc1ccc(NC(=S)Nc2ccc(F)cc2)cc1 | 33.1 | 0.731 µM [rising, full curve, poor fit] | –
22 | COc1ccccc1N1CCN(C(=O)CN(c2ccccc2OC)S(=O)(=O)c2ccccc2)CC1 | -3.5 | – | 2.31 µM [rising, single point]
23 | CN(C)/C=C(/C(=O)c1ccccc1)n1cncn1 | 128 | 4.11 µM [falling, single point] | 6.51 µM [falling, single point]
24 | Cc1cc(C)c2nc(-c3cccc(Cl)c3)c(C)c(C(=O)N3CCOCC3)c2c1 | 5.57 | – | –
25 | Cc1ccc(S(=O)(=O)N2[C@@H](c3ccccc3)C(C(=O)O)=CC[C@H]2c2ccc(C(C)C)cc2)cc1 | 11.7 | – | 5.17 µM [rising, full curve]
26 | COc1ccc(Br)cc1CN1CCSCC1 | 26 | – | 29.1 µM [rising, partial curve]
27 | C=CCN=C1S/C(=C/c2cccc([N+](=O)[O-])c2)C(=O)N1CC=C | 2.34 | – | 29.1 µM [rising, single point]
28 | CN(Cc1cn[nH]c1-c1ccc(-c2ccccc2)cc1)CC1CCOCC1 | 10.3 | – | 1.84 µM [rising, full curve, poor fit]
29 | Cc1noc(C)c1S(=O)(=O)N1CCC(C(=O)N2CCC(C)CC2)CC1 | 1.24 | – | 3.66 µM [falling, partial curve, poor fit]
30 | CCOc1ccc(NC(=O)CN(C)C(=O)c2cc(C)on2)cc1OCC | 25 | 7.31 µM [falling, partial curve, poor fit] | –
31 | CCCCN1C(=O)C(=O)NC[C@@H]1C(C)CC (some centres not stated) | 6.64 | – | 0.058 µM [rising, full curve]
32 | CCCCc1ccc(/C=C2\C(=O)c3ccccc3C(O)=C2C(=O)OCC)cc1 | -3.84 | – | 20.6 µM [falling, partial curve]
33 | NC(=O)c1ccsc1NC(=O)COC(=O)C1CCCN1C(=O)c1cccs1 (configuration not stated) | -36.4 | 32.6 µM [falling, single point] | –
34 | O=C(COc1ccc2c(-c3ccccc3)cc(=O)oc2c1)Nc1cccnc1 | -3.44 | – | 6.51 µM [falling, single point]
35 | O=C(COc1cccnc1[N+](=O)[O-])NCc1cccs1 | – | – | 5.8 µM [rising, full curve]
36 | COc1ccc(NC(=O)c2cc3c(Cl)nc4ccccc4c3s2)c(OC)c1 | -0.141 | – | 1.3 µM [rising, full curve]
37 | COc1ccc([C@H]2CC(=O)C=C(c3ccc(SC)cc3)C2)cc1 | -59.9 | 32.6 µM [falling, single point] | 2.31 µM [falling, single point]
38 | CCC(C)C(=O)Nc1cc([N+](=O)[O-])ccc1Cl (configuration not stated) | -27.4 | – | 18.4 µM [rising, single point]
39 | CCCC/C=C/C(NC(=O)CCc1ccccc1)c1ccccc1 (configuration not stated) | -2.91 | – | 16.4 µM [rising, partial curve]
40 | CCc1nnc(SCC(=O)NCCC2=CCCCC2)nc1CC | 27.3 | – | 29.1 µM [rising, single point]

Grouped by structure, the compounds so far with a thiophene ring, fused or not
Row | Structure (SMILES) | cell number change [%] | AC50 [1] | AC50 [2]
2 | CS(=O)(=O)Nc1cccc(C2=NN(C(=O)c3cccc(F)c3)C(c3cccs3)C2)c1 (configuration not stated) | -9.72 | – | –
3 | Cc1ccsc1/C=c1\sc2ncnn2c1=O | -2.95 | 6.51 µM [rising, single point] | 29.1 µM [rising, single point]
12 | CC(NC(=O)C(=O)N1CCCCC1)C(c1cccs1)N1CCN(Cc2ccccc2)CC1 (configuration not stated) | 8.96 | – | 29.1 µM [rising, single point]
13 | CN(C)S(=O)(=O)c1ccc(C(=O)Nc2nnc(-c3cccs3)o2)cc1 | -10.1 | – | 0.326 µM [falling, full curve, poor fit]
14 | CC(C)(CNC(=O)c1cccs1)N1CCOCC1 | -5.07 | 4.11 µM [falling, single point] | 6.51 µM [falling, single point]
33 | NC(=O)c1ccsc1NC(=O)COC(=O)C1CCCN1C(=O)c1cccs1 (configuration not stated) | -36.4 | 32.6 µM [falling, single point] | –
35 | O=C(COc1cccnc1[N+](=O)[O-])NCc1cccs1 | – | – | 5.8 µM [rising, full curve]
36 | COc1ccc(NC(=O)c2cc3c(Cl)nc4ccccc4c3s2)c(OC)c1 | -0.141 | – | 1.3 µM [rising, full curve]

Next part

Row | Structure (SMILES) | cell number change [%] | AC50 [1] | AC50 [2]
41 | O=C(NCc1ccco1)c1ccc(Cn2c(=O)c3ccccc3n(Cc3cccc(Cl)c3)c2=O)cc1 | -4.18 | – | 1.64 µM [rising, partial curve]
42 | CCCc1nc2c(nnn2Cc2ccccc2)c(=O)[nH]1 | – | 1.84 µM [rising, partial curve] | –
43 | CC1CCN(c2nc3ccccc3nc2N2CCC(C)CC2)CC1 | -32.7 | 2.91 µM [falling, full curve] | 0.92 µM [falling, full curve]
44 | O=C(O)/C=C/C(=O)Nc1ccc(N2CCOCC2)nc1N1CCOCC1 | -18.6 | – | 16.4 µM [falling, partial curve, poor fit]
45 | Cc1ccc(C)c(N2CCN(C(=O)Cc3c(C(=O)O)[nH]c4ccc(Cl)cc34)CC2)c1 | -12.1 | – | –
46 | O=C(CCCN1C(=O)C(c2ccccc2)Oc2cccnc21)Nc1cccc(F)c1 (configuration not stated) | -28.3 | – | 6.51 µM [rising, single point]
47 | CCc1ccccc1NC(=O)CN(C)C(=O)CSc1nn(-c2ccc(F)cc2)c(=S)s1 | 5.08 | – | 7.31 µM [rising, single point]
48 | CCCCC(NC(=O)c1ccccc1)C(=O)OCC(=O)N1c2ccccc2Sc2ccccc21 (configuration not stated) | 38.5 | – | –
49 | Cc1cc(Br)c(NC(=O)c2c(-c3c(Cl)cccc3Cl)noc2C)c(Br)c1 | -4.17 | – | –
50 | COc1ccc(CN(C(=O)CNC(=O)c2ccco2)C(C(=O)NCC2CCCO2)c2ccc(OC)c(OC)c2)cc1 (configuration not stated) | -23.8 | – | 0.206 µM [falling, single point]
51 | CN(CC(=O)NC1CCN(Cc2ccccc2)CC1)S(=O)(=O)c1ccc(Cl)s1 | 16.5 | – | 3.26 µM [falling, single point]
52 | COC(=O)c1ccc(NC(=O)c2cc3c(CO)cnc(C)c3oc2=Nc2cccc(C(N)=O)c2)cc1 | 13.4 | – | 0.146 µM [falling, single point]
53 | CC(C)c1nnc(SCC(=O)N2CCN(C(=O)c3ccco3)CC2)n1N | -29.8 | 0.0231 µM [falling, full curve, poor fit] | –
54 | N#C/C(=C\C=C\c1ccccc1)C(=O)Nc1ccccc1 | 8.4 | 4.11 µM [rising, single point] | 0.116 µM [falling, full curve, poor fit]
55 | COc1ccc(-c2nc(C#N)c(NCc3ccccc3Cl)o2)cc1 | 1.53 | – | 0.58 µM [rising, full curve]
56 | COc1ccc(-c2cc(=O)oc3cc(OC(C)C(=O)Nc4ccc(CN5CCOCC5)cc4)ccc23)cc1 (configuration not stated) | -20.1 | – | 6.51 µM [rising, single point]
57 | CN(c1ncc(C(F)(F)F)cc1Cl)N1C(=O)c2cccc([N+](=O)[O-])c2C1=O | -38.5 | – | –
58 | Cc1ccc(NC(=O)N2CCCC(c3ccccc3)C2)cc1 (configuration not stated) | 15.3 | – | 0.366 µM [rising, full curve, poor fit]
59 | CC(=O)Nc1ccc(C(=O)NCC(=O)OCc2ccccc2F)cc1 | – | – | 0.164 µM [falling, full curve]
60 | Nc1nnc(SCC(=O)NN2C(=O)NC3(CCCCC3)C2=O)s1 | 5.33 | – | 23.1 µM [rising, single point]
